These are yes or no findings as the source states them, for the method shown. Binding seen in cells or lysates may run through a third protein. For some of these results: A result given as binding can be weak or reduced; the word gives no strength.
Assays:
Assay in all cases: co-IP; lysates of COS7 cells transfected with full-length ARID3A or deletion mutants; polyclonal anti-ARID3A IP, Western blot with an EZRIN monoclonal antibody
ARID3A d453–500 = target: T1, ARID3A d453–500 (UniProt Q62431)
T1 sequence: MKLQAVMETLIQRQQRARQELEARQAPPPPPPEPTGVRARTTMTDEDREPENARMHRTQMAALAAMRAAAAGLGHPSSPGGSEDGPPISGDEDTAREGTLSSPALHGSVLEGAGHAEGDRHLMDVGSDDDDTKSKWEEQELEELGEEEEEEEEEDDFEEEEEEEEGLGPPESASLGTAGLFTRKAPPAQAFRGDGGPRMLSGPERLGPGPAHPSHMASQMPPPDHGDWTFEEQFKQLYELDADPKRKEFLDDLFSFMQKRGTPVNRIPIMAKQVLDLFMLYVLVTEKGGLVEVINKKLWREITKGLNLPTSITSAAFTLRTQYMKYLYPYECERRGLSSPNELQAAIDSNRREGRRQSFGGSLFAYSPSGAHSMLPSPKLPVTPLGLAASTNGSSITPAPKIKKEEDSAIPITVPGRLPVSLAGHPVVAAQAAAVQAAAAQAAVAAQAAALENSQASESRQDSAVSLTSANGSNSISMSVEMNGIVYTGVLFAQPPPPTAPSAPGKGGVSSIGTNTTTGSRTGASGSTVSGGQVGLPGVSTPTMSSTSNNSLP

ARID3A d521–541 = target: T2, ARID3A d521–541 (UniProt Q62431)
T2 sequence: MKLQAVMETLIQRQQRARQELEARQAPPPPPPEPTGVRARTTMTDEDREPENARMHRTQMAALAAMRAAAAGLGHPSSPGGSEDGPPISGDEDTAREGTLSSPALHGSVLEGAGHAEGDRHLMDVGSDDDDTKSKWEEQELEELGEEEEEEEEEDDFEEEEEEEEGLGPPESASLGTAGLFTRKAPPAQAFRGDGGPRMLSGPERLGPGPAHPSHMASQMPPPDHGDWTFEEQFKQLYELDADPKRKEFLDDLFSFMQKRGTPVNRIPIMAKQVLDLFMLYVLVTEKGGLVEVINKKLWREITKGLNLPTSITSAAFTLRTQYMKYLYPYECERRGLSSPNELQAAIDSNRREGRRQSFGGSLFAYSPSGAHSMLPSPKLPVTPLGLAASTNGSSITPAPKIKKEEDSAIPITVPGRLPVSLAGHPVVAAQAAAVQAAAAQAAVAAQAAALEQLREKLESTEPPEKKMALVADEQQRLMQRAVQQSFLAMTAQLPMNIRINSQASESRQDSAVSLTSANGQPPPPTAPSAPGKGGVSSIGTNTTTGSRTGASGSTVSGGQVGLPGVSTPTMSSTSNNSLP

[1] = target: T3, full-length ARID3A (residues 1–601) (UniProt Q62431)
T3 sequence: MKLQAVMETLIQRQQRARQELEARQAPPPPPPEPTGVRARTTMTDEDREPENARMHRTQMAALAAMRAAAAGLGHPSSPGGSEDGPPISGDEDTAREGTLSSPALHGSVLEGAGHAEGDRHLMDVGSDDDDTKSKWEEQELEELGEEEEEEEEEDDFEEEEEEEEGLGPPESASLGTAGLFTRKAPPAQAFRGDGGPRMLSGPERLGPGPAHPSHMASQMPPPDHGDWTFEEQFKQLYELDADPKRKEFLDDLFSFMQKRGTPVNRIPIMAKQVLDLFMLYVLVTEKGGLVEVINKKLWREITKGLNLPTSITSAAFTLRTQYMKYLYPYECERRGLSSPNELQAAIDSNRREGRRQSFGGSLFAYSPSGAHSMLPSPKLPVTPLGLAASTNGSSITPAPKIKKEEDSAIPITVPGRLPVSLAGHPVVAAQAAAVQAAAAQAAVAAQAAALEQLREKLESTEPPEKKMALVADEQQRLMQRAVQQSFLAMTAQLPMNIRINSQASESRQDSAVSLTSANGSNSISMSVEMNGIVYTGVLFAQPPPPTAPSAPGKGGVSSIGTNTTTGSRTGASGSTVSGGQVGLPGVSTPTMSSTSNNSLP

ARID3A t1–541 = target: T4, ARID3A t1–541 (UniProt Q62431)
T4 sequence: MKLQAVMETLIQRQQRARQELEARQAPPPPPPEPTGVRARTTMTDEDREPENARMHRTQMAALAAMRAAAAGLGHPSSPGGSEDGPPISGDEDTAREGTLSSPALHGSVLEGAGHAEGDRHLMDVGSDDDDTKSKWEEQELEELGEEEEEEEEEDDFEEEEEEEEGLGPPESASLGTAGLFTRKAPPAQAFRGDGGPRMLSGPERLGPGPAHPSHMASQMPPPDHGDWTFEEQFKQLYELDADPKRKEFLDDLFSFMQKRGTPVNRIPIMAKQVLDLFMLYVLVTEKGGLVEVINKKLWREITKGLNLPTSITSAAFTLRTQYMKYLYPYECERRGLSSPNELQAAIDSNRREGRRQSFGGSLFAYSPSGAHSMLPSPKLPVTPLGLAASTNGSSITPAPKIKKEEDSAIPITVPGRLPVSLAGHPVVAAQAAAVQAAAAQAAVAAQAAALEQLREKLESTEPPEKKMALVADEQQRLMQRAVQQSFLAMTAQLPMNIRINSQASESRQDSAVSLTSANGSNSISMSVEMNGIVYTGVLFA

binding (ARID3A d453–500): no binding
binding (ARID3A d521–541): no binding
binding [1]: binds
binding (ARID3A t1–541): binds
Substance: EZRIN (COS7 cells)

Reference: PMC8005928
